# In the supplement of paper PMC8728848:
# This is one part of the list.
# What was measured:
# Assay in all cases: glycan array binding signal (z-score within array); higher = stronger binding
# Details in all cases: glycan notation: IUPAC condensed, linker removed
# [1] = biological target: Fuc(a1-2)[GalNAc(b1-3)]Gal
# In short: (§1)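 Glycan array data were curated from 3228 arrays in the Consortium for Functional Glycomics database and kept only where the protein sequence was available. Glycan names were converted to IUPAC-condensed notation, and columns mapping to the same glycan were averaged. The binding signal is a within-array Z-score, averaged across arrays of the same protein sequence at different concentrations or buffers and across linkers. Negative Z-scores can be read as non-binding.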
# Fuc(a1-3)GlcNAc = biological target: Fuc(a1-3)GlcNAc
# In short: as §1
# [2] = biological target: Fuc(a1-3)[Gal(b1-4)]Glc6S
# In short: as §1
# [3] = biological target: Fuc(a1-3)[Gal(b1-4)]GlcNAc
# In short: as §1
# [4] = biological target: Fuc(a1-3)[Gal(b1-4)]GlcNAc(b1-2)Man
# In short: as §1
# [5] = biological target: Fuc(a1-3)[Gal(b1-4)]GlcNAc(b1-2)Man(a1-3)[Fuc(a1-3)[Gal(b1-4)]GlcNAc(b1-2)Man(a1-6)]Man(b1-4)GlcNAc(b1-4)GlcNAc
# In short: as §1
# [6] = biological target: Fuc(a1-3)[Gal(b1-4)]GlcNAc(b1-2)Man(a1-3)[Fuc(a1-3)[Gal(b1-4)]GlcNAc(b1-2)Man(a1-6)]Man(b1-4)GlcNAc(b1-4)[Fuc(a1-6)]GlcNAc
# In short: as §1
# [7] = biological target: Fuc(a1-3)[Gal(b1-4)]GlcNAc(b1-3)Gal(b1-3)[Fuc(a1-4)]GlcNAc
# In short: as §1
# [8] = biological target: Fuc(a1-3)[Gal(b1-4)]GlcNAc(b1-3)Gal(b1-4)[Fuc(a1-3)]GlcNAc
# In short: as §1
# [9] = biological target: Fuc(a1-3)[Gal(b1-4)]GlcNAc(b1-3)Gal(b1-4)[Fuc(a1-3)]GlcNAc(b1-3)Gal(b1-4)[Fuc(a1-3)]GlcNAc
# In short: as §1
# [10] = biological target: Fuc(a1-3)[Gal(b1-4)]GlcNAc(b1-3)GalNAc
# In short: as §1
# [11] = biological target: Fuc(a1-3)[Gal(b1-4)]GlcNAc(b1-6)GalNAc
# In short: as §1
# [12] = biological target: Fuc(a1-3)[Gal(b1-4)]GlcNAc(b1-6)[Gal(b1-3)GlcNAc(b1-3)]Gal(b1-4)Glc
# In short: as §1
# [13] = biological target: Fuc(a1-3)[Gal(b1-4)]GlcNAc6S
# In short: as §1
# [14] = biological target: Fuc(a1-3)[Gal3S(b1-4)]Glc
# In short: as §1
# [15] = biological target: Fuc(a1-3)[Gal3S(b1-4)]GlcNAc
# In short: as §1
# [16] = biological target: Fuc(a1-3)[Gal3S(b1-4)]GlcNAc6S
# In short: as §1
# [17] = biological target: Fuc(a1-3)[GalNAc(b1-4)]GlcNAc
# In short: as §1
# [18] = biological target: Fuc(a1-3)[GalNAc(b1-4)]GlcNAc6S
# In short: as §1
# Fuc(a1-4)GlcNAc = biological target: Fuc(a1-4)GlcNAc
# In short: as §1
# Fuc(b1-3)GlcNAc = biological target: Fuc(b1-3)GlcNAc
# In short: as §1
# Gal(a1-2)Gal = biological target: Gal(a1-2)Gal
# In short: as §1
# Gal(a1-3)Gal = biological target: Gal(a1-3)Gal
# In short: as §1
# Gal(a1-3)Gal(b1-3)GlcNAc = biological target: Gal(a1-3)Gal(b1-3)GlcNAc
# In short: as §1
# [19] = biological target: Gal(a1-3)Gal(b1-3)GlcNAc(b1-2)Man
# In short: as §1
# [20] = biological target: Gal(a1-3)Gal(b1-3)GlcNAc(b1-2)Man(a1-3)[Gal(a1-3)Gal(b1-3)GlcNAc(b1-2)Man(a1-6)]Man(b1-4)GlcNAc(b1-4)GlcNAc
# In short: as §1
# [21] = biological target: Gal(a1-3)Gal(b1-3)GlcNAc(b1-3)GalNAc
# In short: as §1
# [22] = biological target: Gal(a1-3)Gal(b1-3)GlcNAc(b1-6)GalNAc
# In short: as §1
# [23] = biological target: Gal(a1-3)Gal(b1-3)[Fuc(a1-4)]GlcNAc(b1-2)Man(a1-3)[Gal(a1-3)Gal(b1-3)[Fuc(a1-4)]GlcNAc(b1-2)Man(a1-6)]Man(b1-4)GlcNAc(b1-4)GlcNAc
# In short: as §1
# Gal(a1-3)Gal(b1-4)Glc = biological target: Gal(a1-3)Gal(b1-4)Glc
# In short: as §1
# Gal(a1-3)Gal(b1-4)GlcNAc = biological target: Gal(a1-3)Gal(b1-4)GlcNAc
# In short: as §1
# [24] = biological target: Gal(a1-3)Gal(b1-4)GlcNAc(b1-2)Man
# In short: as §1
# [25] = biological target: Gal(a1-3)Gal(b1-4)GlcNAc(b1-2)Man(a1-3)[Gal(a1-3)Gal(b1-4)GlcNAc(b1-2)Man(a1-6)]Man(b1-4)GlcNAc(b1-4)GlcNAc
# In short: as §1
# [26] = biological target: Gal(a1-3)Gal(b1-4)GlcNAc(b1-3)GalNAc
# In short: as §1
# [27] = biological target: Gal(a1-3)Gal(b1-4)GlcNAc(b1-6)GalNAc
# In short: as §1
# [28] = biological target: Gal(a1-3)Gal(b1-4)[Fuc(a1-3)]GlcNAc
# In short: as §1
# [29] = biological target: Gal(a1-3)Gal(b1-4)[Fuc(a1-3)]GlcNAc(b1-2)Man(a1-3)[Gal(a1-3)Gal(b1-4)[Fuc(a1-3)]GlcNAc(b1-2)Man(a1-6)]Man(b1-4)GlcNAc(b1-4)GlcNAc
# In short: as §1
# Gal(a1-3)GalNAc = biological target: Gal(a1-3)GalNAc
# In short: as §1
# [30] = biological target: Gal(a1-3)[Gal(a1-4)]Gal(b1-4)GlcNAc
# In short: as §1
# [31] = biological target: Gal(a1-4)Gal(b1-3)GlcNAc(b1-2)Man(a1-3)[Gal(a1-4)Gal(b1-3)GlcNAc(b1-2)Man(a1-6)]Man(b1-4)GlcNAc(b1-4)GlcNAc
# In short: as §1
# Gal(a1-4)Gal(b1-4)Glc = biological target: Gal(a1-4)Gal(b1-4)Glc
# In short: as §1
# Gal(a1-4)Gal(b1-4)GlcNAc = biological target: Gal(a1-4)Gal(b1-4)GlcNAc
# In short: as §1
# [32] = biological target: Gal(a1-4)Gal(b1-4)GlcNAc(b1-2)Man(a1-3)[Gal(a1-4)Gal(b1-4)GlcNAc(b1-2)Man(a1-6)]Man(b1-4)GlcNAc(b1-4)GlcNAc
# In short: as §1
# [33] = biological target: Gal(a1-4)Gal(b1-4)GlcNAc(b1-3)Gal(b1-4)Glc
# In short: as §1
# Gal(a1-4)GlcNAc = biological target: Gal(a1-4)GlcNAc
# In short: as §1
binder,measurement,setting,value
"Actd5 (Actinidia), P84527 (protein) ISSCNGPCRDLNDCDGQLICIKGKCNDDPQVGTHICRGTTHSHQPGGCKPSGTLTCRGKSYPTYDCSPPVTSSTPAKLTNNDFSEGGDDGGPSECDESYHNNNERIVALSTGWYNGGSRCGKMIRITASNGKSVSAKVVDECDSRHGCDKEHAGQPPCRNNIVDGSNAVWSALGLDKNVGVVDITWSMA",glycan array binding signal (z-score),[1],-0.456
same,glycan array binding signal (z-score),Fuc(a1-3)GlcNAc,-0.676
same,glycan array binding signal (z-score),[2],-0.095
same,glycan array binding signal (z-score),[3],-0.654
same,glycan array binding signal (z-score),[4],-1.01
same,glycan array binding signal (z-score),[5],-0.8
same,glycan array binding signal (z-score),[6],0.636
same,glycan array binding signal (z-score),[7],-1.43
same,glycan array binding signal (z-score),[8],-0.729
same,glycan array binding signal (z-score),[9],-0.828
same,glycan array binding signal (z-score),[10],-0.199
same,glycan array binding signal (z-score),[11],-0.273
same,glycan array binding signal (z-score),[12],1.2
same,glycan array binding signal (z-score),[13],0.273
same,glycan array binding signal (z-score),[14],0.128
same,glycan array binding signal (z-score),[15],0.258
same,glycan array binding signal (z-score),[16],-0.46
same,glycan array binding signal (z-score),[17],-0.759
same,glycan array binding signal (z-score),[18],-1.21
same,glycan array binding signal (z-score),Fuc(a1-4)GlcNAc,0.142
same,glycan array binding signal (z-score),Fuc(b1-3)GlcNAc,0.153
same,glycan array binding signal (z-score),Gal(a1-2)Gal,-0.933
same,glycan array binding signal (z-score),Gal(a1-3)Gal,-0.145
same,glycan array binding signal (z-score),Gal(a1-3)Gal(b1-3)GlcNAc,-0.502
same,glycan array binding signal (z-score),[19],-0.14
same,glycan array binding signal (z-score),[20],1.3
same,glycan array binding signal (z-score),[21],-0.49
same,glycan array binding signal (z-score),[22],-0.822
same,glycan array binding signal (z-score),[23],1.58
same,glycan array binding signal (z-score),Gal(a1-3)Gal(b1-4)Glc,0.021
same,glycan array binding signal (z-score),Gal(a1-3)Gal(b1-4)GlcNAc,0.17
same,glycan array binding signal (z-score),[24],0.117
same,glycan array binding signal (z-score),[25],0.615
same,glycan array binding signal (z-score),[26],-0.529
same,glycan array binding signal (z-score),[27],-0.551
same,glycan array binding signal (z-score),[28],-1.11
same,glycan array binding signal (z-score),[29],2.94
same,glycan array binding signal (z-score),Gal(a1-3)GalNAc,-0.081
same,glycan array binding signal (z-score),[30],-0.412
same,glycan array binding signal (z-score),[31],0.431
same,glycan array binding signal (z-score),Gal(a1-4)Gal(b1-4)Glc,-0.25
same,glycan array binding signal (z-score),Gal(a1-4)Gal(b1-4)GlcNAc,0.019
same,glycan array binding signal (z-score),[32],2.59
same,glycan array binding signal (z-score),[33],-0.704
same,glycan array binding signal (z-score),Gal(a1-4)GlcNAc,-0.316

# 4 records picked at random from those above, as already listed:
binder,measurement,setting,value
"Actd5 (Actinidia), P84527 (protein) ISSCNGPCRDLNDCDGQLICIKGKCNDDPQVGTHICRGTTHSHQPGGCKPSGTLTCRGKSYPTYDCSPPVTSSTPAKLTNNDFSEGGDDGGPSECDESYHNNNERIVALSTGWYNGGSRCGKMIRITASNGKSVSAKVVDECDSRHGCDKEHAGQPPCRNNIVDGSNAVWSALGLDKNVGVVDITWSMA",glycan array binding signal (z-score),[33],-0.704
same,glycan array binding signal (z-score),[8],-0.729
same,glycan array binding signal (z-score),[14],0.128
same,glycan array binding signal (z-score),[10],-0.199
